The text below walks through data of paper doi:10.1101/2020.02.26.966143.

Assay [1] deals with T1, Vitamin D receptor (mouse (endogenous in RAW264.7)) (UniProt P48281).
T1 sequence: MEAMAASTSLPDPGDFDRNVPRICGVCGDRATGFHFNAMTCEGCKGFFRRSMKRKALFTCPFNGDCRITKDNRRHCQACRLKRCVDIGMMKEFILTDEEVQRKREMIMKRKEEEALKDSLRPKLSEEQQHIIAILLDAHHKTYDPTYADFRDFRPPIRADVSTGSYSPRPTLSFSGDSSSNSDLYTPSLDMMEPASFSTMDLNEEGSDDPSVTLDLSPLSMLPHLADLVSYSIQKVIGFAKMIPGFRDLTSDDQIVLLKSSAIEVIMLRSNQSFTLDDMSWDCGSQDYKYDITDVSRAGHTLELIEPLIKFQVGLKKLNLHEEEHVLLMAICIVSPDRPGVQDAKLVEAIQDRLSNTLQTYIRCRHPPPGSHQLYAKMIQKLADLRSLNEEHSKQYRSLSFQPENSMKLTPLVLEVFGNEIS
Description: co-IP.

For assay [2], the target named is T1, Vitamin D receptor (mouse (endogenous in RAW264.7)). Kind of assay: co-IP. The source holds these as a separate data set.

Read-outs that look alike come from different tables or passages of the source. These are yes or no findings as the source states them, for the method shown. In cells and extracts the contact can be indirect. Some binding calls cover weakened binding; strength is not graded here.

With NF-κB p65 (from UniProt Q04207-1 1-549), the binding result in assay [1] and in assay [2] was “binds” throughout.
